{
  "sequences": {"note": "Sequences of proteins named here, by UniProt entry; tags and fusion partners are left off. A change or cut given only in a name is not applied to a line headed by its entry.", "UniProt P18054": "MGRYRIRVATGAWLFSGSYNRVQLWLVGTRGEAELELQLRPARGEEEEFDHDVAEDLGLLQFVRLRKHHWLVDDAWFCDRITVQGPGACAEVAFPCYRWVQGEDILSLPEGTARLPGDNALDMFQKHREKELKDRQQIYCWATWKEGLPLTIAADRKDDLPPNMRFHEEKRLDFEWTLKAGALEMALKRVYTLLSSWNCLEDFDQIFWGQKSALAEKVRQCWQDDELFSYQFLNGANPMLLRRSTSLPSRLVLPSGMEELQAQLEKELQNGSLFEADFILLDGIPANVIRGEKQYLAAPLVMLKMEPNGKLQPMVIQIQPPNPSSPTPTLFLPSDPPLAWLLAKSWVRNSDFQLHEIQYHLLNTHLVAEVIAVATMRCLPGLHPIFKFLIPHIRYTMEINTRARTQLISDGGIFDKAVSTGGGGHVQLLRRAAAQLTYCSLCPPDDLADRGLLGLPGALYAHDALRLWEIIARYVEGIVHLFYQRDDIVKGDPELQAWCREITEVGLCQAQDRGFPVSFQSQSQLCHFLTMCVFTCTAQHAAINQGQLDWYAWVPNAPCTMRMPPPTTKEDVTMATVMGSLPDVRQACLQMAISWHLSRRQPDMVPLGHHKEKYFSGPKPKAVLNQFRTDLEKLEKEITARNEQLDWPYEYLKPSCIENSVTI"},
  "source": "PubChem BioAssay AID1671190",
  "about": "(National Center for Advancing Translational Sciences (NCATS), 2021)",
  "note": "Where “and” joins values, the source holds several entries; their conditions need not be identical. Equal values may be shown once. In all, about 580,000 compounds went through this assay and about 6,100 (1.1%) were called active. Inconclusive means that the source gave no clear call. Such entries were picked first, then a sample of the others. Calls come from the whole dose curve; as a rule, active = well fitted inhibition curve with a large enough effect; inconclusive = small, poorly fitted or top-dose-only effect, or another doubt; inactive = no such curve, though single readings can be large or run the other way. Potencies beside an inconclusive call are fits to weak or partial responses and may not hold up. Some compounds were tested as several samples or in several runs, with calls that do not always agree. % is set by controls: 0 for no effect and ±100 for the full control effect; potency is the fitted concentration of half-maximal effect.",
  "data": [
    {"target": "Polyunsaturated fatty acid lipoxygenase ALOX12 (Homo sapiens) (UniProt P18054)", "assay": "Primary qHTS assay for inhibitors of human arachidonate 12S-lipoxygenase (ALOX12): Round 2", "conditions": "purified 12hLO, xylenol orange hydroperoxide absorbance; activity change, negative = inhibition: at 108 µM (top of the series)", "in_short": "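Hydroperoxide product was detected by ferrous iron/xylenol orange as the 573 to 405 nm absorbance ratio. Arachidonic acid at 40 uM (final) was turned over for 30 min at room temperature by 150 nM human 12hLO, pH 7.0 Hepes buffer, after 15 min compound preincubation.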", "values": [
      {"smiles": "CN1C(=O)[C@H]2CN(Cc3ccco3)C[C@H]2C1=O", "activity change, negative = inhibition": "inactive: 48.4%"},
      {"smiles": "O=C(c1cccs1)N1[C@H]2CC[C@@H]1c1cnc(-c3ccc(F)cc3)nc1C2", "activity change, negative = inhibition": "inactive: 30.1%"},
      {"smiles": "COc1ccc2c3c1OC1C(O)C=CC4C(C2)[N+](C)(C)CCC341", "note": "(stereo not given)", "Potency": "active: 44.7 µM"},
      {"smiles": "O=C1NC(=O)C(=Cc2cccc(OCCOc3ccccc3)c2)C(=O)N1", "Potency": "inconclusive: 12.6 µM [inhibitor, partial curve, poor fit]"},
      {"smiles": "CSc1ccc(-c2ccc(=O)n3c2[C@@H]2C[C@@H](CN(S(=O)(=O)c4cccs4)C2)C3)cc1", "Potency": "inconclusive: 17.8 µM [inhibitor, full curve]"},
      {"smiles": "Cn1c(O)c(/C=C2\\C=c3ccccc3=NC2=O)c(=O)n(C)c1=O", "activity change, negative = inhibition": "inactive: 2.08%"},
      {"smiles": "NC(=O)c1cn(C2OC(CO)C(O)C2O)c2ncnc(N)c12", "note": "(stereo not given)", "Potency": "active: 17.8 µM"},
      {"smiles": "CC(C)COP(=O)(OCC(C)C)C(O)c1cccnc1", "note": "(stereo not given)", "activity change, negative = inhibition": "inactive: -3.48%"},
      {"smiles": "CN(C)CCCN1CCC(=O)C2CCCCC21", "note": "(stereo not given)", "Potency": "inconclusive: 35.5 µM [inhibitor, partial curve, poor fit]"},
      {"smiles": "CNC(=S)N(C)CCc1cc2c(c(OC)c1/C=C1/C(=O)NC(=O)N(C)C1=O)OCO2", "Potency": "inconclusive: 35.5 µM [inhibitor, partial curve, poor fit]"},
      {"smiles": "CCN1CCN(C(=O)COc2ccc3c(=O)c(-c4ccc(OC)cc4)c(C)oc3c2)CC1", "Potency": "inconclusive: 158 µM [inhibitor, partial curve, poor fit]"},
      {"smiles": "O=C(O)C1C2c3ccccc3C(O)C1(C(=O)O)c1ccccc12", "note": "(stereo not given)", "Potency": "inconclusive: 39.8 µM [inhibitor, single point]"},
      {"smiles": "CCOc1ccc(N2C(=O)NC(=O)/C(=C\\c3ccc(N4CCCCC4)o3)C2=O)cc1", "activity change, negative = inhibition": "inactive: -13.7%"},
      {"smiles": "Cc1oc(-c2ccccc2)nc1CN1C(=O)CN=C(c2ccccc2)c2ccccc21", "Potency": "inconclusive: 50.1 µM [inhibitor, single point]"},
      {"smiles": "O=C1CN=C(c2ccc(Br)cc2)c2c(sc3c2CCCC3)N1CCN1CCCCC1", "activity change, negative = inhibition": "inactive: -7.19%"},
      {"smiles": "C[N+]12CN3CN(CN(C3)C1)C2", "Potency": "inconclusive: 2.24 µM [inhibitor, full curve, poor fit]"},
      {"smiles": "CCOc1ccc(CN(CCc2ccc3c(c2)OCO3)Cc2ccc(OC)c(Br)c2)cc1", "Potency": "inconclusive: 3.55 µM [inhibitor, full curve, poor fit]"},
      {"smiles": "CC(C)NS(=O)(=O)c1ccc(OCC(=O)N2CCN(Cc3ccccc3)CC2)cc1", "activity change, negative = inhibition": "inactive: 0.0283%"},
      {"smiles": "CCC(=NCCCn1ccnc1)c1c(O)n(-c2ccc(OC)cc2)c(=O)[nH]c1=O", "Potency": "inconclusive: 141 µM [inhibitor, single point]"},
      {"smiles": "NC(Cc1nc2ccccc2[nH]1)c1ccc(Cl)cc1", "note": "(stereo not given)", "Potency": "inconclusive: 6.31 µM [inhibitor, full curve, poor fit]"},
      {"smiles": "Cc1ccc(C(=O)N2[C@H]3CC[C@@H]2c2cnc(-c4ccc(F)cc4)nc2C3)cn1", "Potency": "active: 39.8 µM"},
      {"smiles": "C=CCN1C(=O)NC(=O)/C(=C/c2cccn2C)C1=O", "Potency": "inconclusive: 44.7 µM [inhibitor, partial curve, poor fit]"},
      {"smiles": "O=C1CN=C(c2ccccc2Cl)c2cc(Br)ccc2N1", "Potency": "inconclusive: 63.1 µM [inhibitor, partial curve, poor fit]"},
      {"smiles": "COC(=O)[C@H]1[C@H](CO)[C@H]2Cn3c(cccc3=O)[C@H]2N1CC1CC1", "Potency": "inconclusive: 35.5 µM [inhibitor, partial curve]"},
      {"smiles": "N#CC1=C(N)Oc2nc(SCc3ccccc3Cl)nc(N)c2C1c1ccc(F)cc1", "note": "(stereo not given)", "Potency": "inconclusive: 22.4 µM [inhibitor, partial curve, poor fit]"},
      {"smiles": "Cc1c(N=Nc2c(O)n(Cc3ccccc3)c(=O)[nH]c2=O)c(=O)n(-c2ccccc2)n1C", "activity change, negative = inhibition": "inactive: 3.11%"},
      {"smiles": "CCCN1CCO[C@@H]2c3cc(O)ccc3OC[C@@H]21", "Potency": "inconclusive: 35.5 µM [inhibitor, partial curve, poor fit]"},
      {"smiles": "O=c1ccc(-c2ccc(Cl)cc2)c2n1C[C@H]1C[C@@H]2CN(S(=O)(=O)c2cccs2)C1", "Potency": "inconclusive: 35.5 µM [inhibitor, partial curve]"},
      {"smiles": "C[C@@H]1O[C@@H](O[C@H]2C[C@@H](O)[C@]3(CO)[C@H]4[C@H](O)C[C@]5(C)[C@@H](C6=CC(=O)OC6)CC[C@]5(O)[C@@H]4CC[C@]3(O)C2)[C@H](O)[C@H](O)[C@H]1O", "Potency": "inconclusive: 24.3 µM [inhibitor, partial curve, poor fit] and inconclusive: 31.6 µM [inhibitor, single point]"},
      {"smiles": "FC(F)(F)c1ccc(CNCCc2c[nH]c3ccccc23)cc1", "Potency": "inconclusive: 44.7 µM [inhibitor, partial curve, poor fit]"},
      {"smiles": "C[C@@H](N)Cc1cnc[nH]1", "Potency": "inconclusive: 8.91 µM [inhibitor, partial curve, poor fit]"},
      {"smiles": "CCN1/C(=C/C=C/C2=[N+](CC)c3ccccc3C2(C)C)C(C)(C)c2ccccc21", "Potency": "inconclusive: 100 µM [inhibitor, partial curve, poor fit]"},
      {"smiles": "O=C1NC(=O)N(c2ccccc2F)C(=O)/C1=C/c1ccc(Oc2ccc([N+](=O)[O-])cn2)cc1", "Potency": "inconclusive: 44.7 µM [inhibitor, partial curve]"},
      {"smiles": "Cc1cccc(N2C(=O)CC(=O)NC2=O)c1", "Potency": "inconclusive: 1.58 µM [inhibitor, full curve, poor fit]"},
      {"smiles": "C=C[C@H]1CN2CC[C@H]1C[C@@H]2CNC(=O)CCCC(=O)O", "activity change, negative = inhibition": "inactive: 22.6% [at 176 µM]"},
      {"smiles": "O=C(O)CCn1cc(C=C2C(=O)NC(=S)NC2=O)c(-c2ccccc2)n1", "Potency": "inconclusive: 28.2 µM [inhibitor, single point]"},
      {"smiles": "O=[N+]([O-])c1cccnc1N1CCCNCC1", "Potency": "inconclusive: 2.82 µM [inhibitor, full curve, poor fit]"},
      {"smiles": "O=C1NC(=S)N(c2ccccc2)C(=O)/C1=C/c1ccco1", "Potency": "inconclusive: 5.01 µM [inhibitor, full curve, poor fit]"},
      {"smiles": "O=C(CN1CCN(C(=O)Cc2n[nH]c(=O)c3ccccc23)CC1)NC1CC1", "activity change, negative = inhibition": "inactive: 19.8%"},
      {"smiles": "CC1CC(OP(O)(=S)c2ccc(N(C)C)cc2NC(=O)c2cccs2)CC(C)(C)C1", "note": "(stereo not given)", "activity change, negative = inhibition": "inactive: 0.508%"}
    ]}
  ]
}
